# Results from PubChem BioAssay AID540276 (National Center for Advancing Translational Sciences (NCATS), 2011).
# Values joined by “and” are separate entries in the source; they are usually repeats but may differ in a detail not shown here. Identical values can stand only once. In all, about 300,000 compounds went through this assay and about 5,400 (1.8%) were called active. This list was built around the results that the source calls inconclusive (neither active nor inactive); the mix of calls is not that of the screen. Calls come from the whole dose curve; tested in HEK293 cells. Where the call is inconclusive, the potency comes from a doubtful curve fit.
# Test: qHTS for inhibitors of binding or entry into cells for Marburg Virus
# Details: Marburg virus pseudotyped entry inhibition, cell reporter; series mostly up to 37.8 µM
# Potency is the fitted concentration of half-maximal effect.
row,Structure (SMILES),Potency
1,COc1ccc(NC(=O)NC2(C(=O)N3CCN(C)CC3)CCCCC2)cc1,"inconclusive: 3.98 µM [activator, partial curve, poor fit]"
2,COCCNC(=O)c1ccccc1N(Cc1ccccc1)S(=O)(=O)c1ccc(C)cc1,"inconclusive: 3.55 µM [activator, single point]"
3,CSc1ccccc1NC(=O)C1CCCN(S(C)(=O)=O)C1 (stereo unspecified),"inconclusive: 35.5 µM [activator, single point]"
4,COc1ccc(C(=O)N=c2nc3ccccn3s2)cc1,"inconclusive: 3.98 µM [inhibitor, full curve]"
5,N/C(=N\OC(=O)COc1ccc(Cl)cc1Cl)c1cccnc1,"inconclusive: 10 µM [activator, partial curve, poor fit]"
6,COc1cc2nc(/C=C/c3cc(OC)c(OC)c(OC)c3)sc2cc1SC,active: 7.08 µM
7,CN(C)CCCN(C(=O)c1cccs1)c1nc(-c2ccccc2)cs1,"inconclusive: 16.4 µM [inhibitor, partial curve, poor fit]"
8,Cc1cc(F)ccc1NCc1ccccc1[N+](=O)[O-],"inconclusive: 11.2 µM [inhibitor, partial curve]"
9,Cn1c(N2CCN(c3ccccn3)CC2)nc2c1c(=O)n(Cc1ccccc1Cl)c(=O)n2C,inactive
10,CCCN(CCC)S(=O)(=O)c1ccc(NC(=O)Cc2cccs2)cc1,inactive
11,COc1ccc(C(C(C(=O)c2ccco2)N2CCOCC2)N2CCOCC2)cc1 (stereo unspecified),inactive
12,CC(Sc1ccc(S(=O)(=O)N2CCOCC2)cn1)c1ccccc1Cl (stereo unspecified),"inconclusive: 8.91 µM [inhibitor, partial curve, poor fit]"
14,CCN(CC)CCCNC(=O)CSc1c2c(nc3cc(Cl)ccc13)CCCC2,"inconclusive: 22.4 µM [inhibitor, single point] and inconclusive: 11.2 µM [inhibitor, single point]"
15,CC1=CC(c2ccc(Cl)cc2)n2nc(NS(=O)(=O)c3ccc(C)cc3)nc2N1 (stereo unspecified),"inconclusive: 29.1 µM [activator, single point]"
16,O=C(Nc1ccc(Oc2cccnc2)cc1)c1ccc([N+](=O)[O-])cc1,inactive
17,COc1ccc(/C=C/C(=O)OCC(=O)c2ccccc2F)cc1,inactive
18,Cc1ccc(-c2cc(C(=O)N/N=C/c3c(C)nn(-c4ccccc4)c3C)n[nH]2)s1,"inconclusive: 29.1 µM [inhibitor, single point]"
19,Cc1ccc(S(=O)(=O)N[C@H](C(=O)OCC(=O)NC(=O)NCc2ccco2)C(C)C)cc1,inactive
20,Cc1oc(-c2cccs2)nc1CN1CC[C@@](O)(c2ccccc2)[C@H]2CCCC[C@@H]21,"inconclusive: 12.6 µM [inhibitor, partial curve, poor fit]"
21,O=C(/C(=N\Nc1ccc([N+](=O)[O-])cc1)Sc1nnnn1-c1ccccc1)c1ccccc1,active: 0.891 µM
22,S=c1[nH]nc(COc2ccccc2)n1/N=C/C=C/c1ccccc1,inactive

row,Structure (SMILES),Potency
1,CCC(=O)N1CCCc2cc(S(=O)(=O)N3CCN(c4ccccn4)CC3)ccc21,"inconclusive: 15.8 µM [inhibitor, single point]"
2,C=CCn1c(SCC(=O)Nc2ncc(Cc3ccc(C)c(Cl)c3)s2)nnc1-c1ccncc1,"inconclusive: 1.26 µM [inhibitor, single point]"
3,COc1cc(C2C(C(=O)OCC(C)C)=C(C)N=C3SCCC(=O)N32)ccc1OCc1ccccc1 (stereo unspecified),"inconclusive: 0.562 µM [inhibitor, full curve, poor fit]"
4,Cc1cccc2sc(N(CCCN(C)C)C(=O)c3ccc(Cl)s3)nc12,"inconclusive: 17.8 µM [inhibitor, partial curve, poor fit]"
5,CCc1cccc(CC)c1NC(=O)COC(=O)CC1c2ccccc2CCN1S(=O)(=O)c1ccc(F)cc1 (stereo unspecified),"inconclusive: 29.1 µM [inhibitor, single point]"
6,Cc1ccc2c(CN3CCN(CCO)CC3)cc(=O)oc2c1C,"inconclusive: 3.66 µM [activator, single point]"
7,O=C(CSc1nnc(SCc2ccc(Cl)cc2)s1)N/N=C/c1c(Cl)cccc1Cl,"inconclusive: 35.5 µM [inhibitor, single point]"
8,COc1ccc(C(=O)COC(=O)c2ccn(C)n2)cc1,"inconclusive: 35.5 µM [activator, single point]"
9,COc1ccc(-c2noc(CCC(=O)Nc3ccc4c(c3)OCCO4)n2)cc1,"inconclusive: 2 µM [inhibitor, partial curve, poor fit]"
10,COc1ccc2c(c1)c(CC(=O)OCC(=O)N(C)C)c(C)n2C(=O)c1ccc(Cl)cc1,active: 25.1 µM
11,Cc1ccc(Cl)cc1NC(=O)Cn1c(=O)n(CCCS(=O)(=O)C2CCCCC2)c(=O)c2ccccc21,"inconclusive: 12.6 µM [inhibitor, partial curve, poor fit]"
12,O=C(c1ccc(NS(=O)(=O)c2cccs2)cc1)N1CCCCC1,inactive
13,COC(=O)c1c(NC(=O)CN2CCN(Cc3ccc4c(c3)OCO4)CC2)sc(C)c1C,"inconclusive: 29.1 µM [inhibitor, single point]"
14,N#Cc1ccc(CO/N=C/c2ccccc2)cc1,"inconclusive: 14.1 µM [activator, single point]"
15,CC[C@@H](c1ccccc1)n1c(=O)n2n(c1=O)[C@H]1[C@H](O)[C@@H]3O[C@@H]3/C(=N\OCc3ccccc3)[C@H]1CC2,"inconclusive: 0.596 µM [inhibitor, single point]"
16,Cc1ccc2nc(N3CCN(Cc4ccc(F)cc4)C3=O)c(C)cc2c1,inactive
17,CCOC(=O)CSc1nc2ccccc2n1CC(=O)N(C(C)C)C(C)C,"inconclusive: 0.231 µM [activator, single point]"
18,COc1ccc(OC)c(-c2csc(NC(=O)Cc3cc(OC)c(OC)c(OC)c3)n2)c1,"inconclusive: 5.01 µM [inhibitor, full curve, poor fit]"
19,CS(=O)(=O)c1ccc(C(=O)OCC(=O)c2ccc(Cl)s2)cc1,"inconclusive: 35.5 µM [activator, single point]"
20,Cc1nc2nncn2c(NCc2ccc(Cl)cc2)c1C,"inconclusive: 3.55 µM [inhibitor, full curve]"
21,Cc1ccc(-c2cn3nc(C)c(C)nc3n2)cc1,active: 0.282 µM
22,C=CCN1CC(C)/C(=N\O)CC1C (stereo unspecified),"inconclusive: 1.78 µM [activator, single point]"

row,Structure (SMILES),Potency
1,Cc1ccc(/C=C/C(=O)Nn2cnnc2)cc1,"inconclusive: 3.98 µM [inhibitor, full curve, poor fit]"
2,Cc1ccc(S(=O)(=O)N(C)C)cc1NC(=O)CN1C(=O)NC2(CCCCCC2)C1=O,inactive
3,FC(F)Oc1ccc(C2N=C(c3ccccc3)NO2)cc1 (stereo unspecified),"inconclusive: 0.562 µM [activator, full curve, poor fit]"
4,COc1cccc(NC(=O)CCN2C(=O)c3cccc([N+](=O)[O-])c3C2=O)c1,"inconclusive: 5.62 µM [inhibitor, partial curve, poor fit]"
5,COc1ccc(Cn2c(=O)sc3ccccc32)cc1,inactive
6,COc1ccc(CN2CCNC(=O)C2CC(=O)N(C)CC2CCOCC2)cc1C (stereo unspecified),inactive
7,COc1cccc(CNc2nc3nc(C)cc(C)n3n2)c1,"inconclusive: 0.116 µM [activator, full curve, poor fit]"
8,O=[N+]([O-])c1ccc(S(=O)(=O)Nc2ccc(-c3ccc(N4CCOCC4)nn3)cc2)cc1,"inconclusive: 17.8 µM [activator, single point]"
9,Cc1nn(C)c(=S)[nH]c1=S,inactive
10,Cc1ccc(S(=O)(=O)Oc2ccccc2/C=N/N=C(N)N)cc1,"inconclusive: 35.5 µM [inhibitor, single point]"
11,O=C(CSc1nnc(Cc2cccs2)n1CCc1ccccc1)N1CCCc2ccccc21,"inconclusive: 23.1 µM [inhibitor, single point]"
12,CC(C)c1ccccc1NC(=O)C1CN(S(=O)(=O)c2ccccc2)CCN1S(=O)(=O)c1ccccc1 (stereo unspecified),"inconclusive: 17.8 µM [inhibitor, partial curve, poor fit]"
13,CCOC(=O)c1cccc(NC(=O)C2CCCN(S(=O)(=O)c3ccc4c(c3)oc(=O)n4C)C2)c1 (stereo unspecified),inactive
14,CCOc1ccc(Nc2ncnc3c2cnn3Cc2ccccc2)cc1,"inconclusive: 32.6 µM [inhibitor, single point]"
15,O=C(c1cccs1)N1CCCN(c2ncnc3scc(-c4ccccc4)c23)CC1,"inconclusive: 35.5 µM [inhibitor, single point]"
16,Cc1cccc(NC(=O)CCN2CCCCC2)c1,inactive
17,O=C(NCc1ccccc1)C1COc2ccccc2O1 (stereo unspecified),inactive
18,C=CCC(CC=C)(CNC(=O)C(=O)Nc1cc(C)ccc1OC)c1ccc(OC)c(OC)c1,inactive
19,CCOc1ccc(C2=NC(c3ccc(OC)cc3)=Nc3ccc(Cl)cc3N2)cc1,"inconclusive: 22.4 µM [activator, single point]"
20,CC1C/C(=C/c2ccco2)C(=O)/C(=C/c2ccco2)C1 (stereo unspecified),"inconclusive: 10.3 µM [inhibitor, partial curve, poor fit]"
21,Cn1c(S(=O)(=O)c2ccc([N+](=O)[O-])cc2)nc(Br)c1Br,"inconclusive: 35.5 µM [inhibitor, single point]"
22,O=C(Nc1ccc(F)cc1)N1CCC(c2nc3c(nnn3Cc3cccc(Cl)c3)c(=O)[nH]2)CC1,"inconclusive: 29.1 µM [inhibitor, single point]"
